Test [1] concerns the target PBP2 (S. aureus). Kind of test: two-hybrid.
Test [2] addresses DivIC (S. aureus). Nature of the test: two-hybrid.

Results are given in words; binding and its absence hold for the method and conditions named. Binding can be weak; no strength is given. Sequences can lack the tags named with a protein.

B1: T25-PBP1ΔPASTA (S. aureus PBP1 without the PASTA domains, M1-S595) (domain or fragment, UniProt Q2FZ94 1-595)
chain: MAKQKIKIKKNKIGAVLLVGLFGLLFFILVLRISYIMITGHSNGQDLVMKANEKYLVKNAQQPERGKIYDRNGKVLAEDVERYKLVAVIDKKASANSKKPRHVVDKKETAKKLSTVINMKPEEIEKRLSQKKAFQIEFGRKGTNLTYQDKLKIEKMNLPGISLLPETERFYPNGNFASHLIGRAQKNPDTGELKGALGVEKIFDSYLSGSKGSLRYIHDIWGYIAPNTKKEKQPKRGDDVHLTIDSNIQVFVEEALDGMVERYQPKDLFAVVMDAKTGEILAYSQRPTFNPETGKDFGKKWANDLYQNTYEPGSTFKSYGLAAAIQEGAFDPDKKYKSGHRDIMGSRISDWNRVGWGEIPMSLGFTYSSNTLMMHLQDLVGADKMKSWYERFGFGKSTKGMFDGEAPGQIGWSNELQQKTSSFGQSTTVTPVQMLQAQSAFFNDGNMLKPWFVNSVENPVSKRQFYKGQKQIAGKPITKDTAEKVEKQLDLVVNSKKSHAANYRIDGYEVEGKTGTAQVAAPNGGGYVKGPNPYFVSFMGDAPKKNPKVIVYAGMSLAQKNDQEAYELGVSKAFKPIMENTLKYLNVGKSKDDTS
As to B1, the binding entry in test [1] and in test [2] was “binds” in each case.

B2: S. aureus PBP1 (bacterial two-hybrid fusion) (protein, UniProt Q2FZ94 1-744)
chain: MAKQKIKIKKNKIGAVLLVGLFGLLFFILVLRISYIMITGHSNGQDLVMKANEKYLVKNAQQPERGKIYDRNGKVLAEDVERYKLVAVIDKKASANSKKPRHVVDKKETAKKLSTVINMKPEEIEKRLSQKKAFQIEFGRKGTNLTYQDKLKIEKMNLPGISLLPETERFYPNGNFASHLIGRAQKNPDTGELKGALGVEKIFDSYLSGSKGSLRYIHDIWGYIAPNTKKEKQPKRGDDVHLTIDSNIQVFVEEALDGMVERYQPKDLFAVVMDAKTGEILAYSQRPTFNPETGKDFGKKWANDLYQNTYEPGSTFKSYGLAAAIQEGAFDPDKKYKSGHRDIMGSRISDWNRVGWGEIPMSLGFTYSSNTLMMHLQDLVGADKMKSWYERFGFGKSTKGMFDGEAPGQIGWSNELQQKTSSFGQSTTVTPVQMLQAQSAFFNDGNMLKPWFVNSVENPVSKRQFYKGQKQIAGKPITKDTAEKVEKQLDLVVNSKKSHAANYRIDGYEVEGKTGTAQVAAPNGGGYVKGPNPYFVSFMGDAPKKNPKVIVYAGMSLAQKNDQEAYELGVSKAFKPIMENTLKYLNVGKSKDDTSNAEYSKVPDVEGQDKQKAIDNVSAKSLEPVTIGSGTQIKAQSIKAGNKVLPHSKVLLLTDGDLTMPDMSGWTKEDVIAFENLTNIKVNLKGSGFVSHQSISKGQKLTEKDKIDVEFSSENVDSNSTNNSDSNSDDKKKSDSKTDKDKSD
In the case of B2, the binding entry in test [1] and in test [2] was “binds” throughout.

The values above are taken from article doi:10.1101/2021.10.07.463504.
